The record followed here is publication PMC10163288.

First the molecules themselves.
B1: il2ra_site1_2b5i_normal_mot_d4f58537f9d5e1f361f6ea2252377c33_0001_1_000000167_0001_1_13_H_._HHH_b1_04228_0001_0000300038_0000001_0 (protein)
chain: SSSSSNERILEYAQRHLEEAERAGDERAIRRWAEMLLRQAKEVGDEEVAEYARRLLEEVSSSSSS
B2: il2ra_site1_1z92_sap_17_mot_HHH_b1_04261_000000113_0001_39_52_H_._038fe1aee5932669f1ddd6e60ea7a8eb_0001_0001_0000100010_0000001_0_0001_af2pred_0001_af2pred (protein)
chain: SSSSSSEDFERIQELFEEATRIPDPEEAREVLEEALELAERLGDERIAEEIRQFLEMAGSSSSSS
B3: il2ra_site2_2erj_normal_mot_HHH_b1_00071_af2_000000225_0001_40_56_H_._HHH_b2_01689_0001_0000800027_0000001_0 (protein)
chain: SSSSDAIEEAIEAVAEATELLAHASEEELEELLERLEKLVRELNDETTLRFVELLEKDALSSSSS
B4: il2ra_site2_2erj_normal_mot_8a316d4779eb53efc793250774d75e68_0001_af2_000000043_0001_18_32_H_._HHH_b1_05331_0001_0000500005_0000001_0_af2pred_0001_1_af2pred_swa … (protein)
chain: SSSSDEEEKLKELLEIVERLLKEGDPERAILRVIEAILLAQEANDEEIAEELHKLLQESRSSSSS
B5: il2ra_site1_2b5i_normal_mot_22370d59370c406a0c205a431f537cfa_0001_af2_000000141_0001_1_31_H_._HHH_b2_03163_af2_0001_0000300029_0000001_0_af2pred_0001_af2pred (protein)
chain: SSSDHELVRFAVRVVLRLARELGLSREQIKRLHEIAVRLVDNGFSEEEIEEILREEAEELKSSSS
B6: il2ra_site1_3nfp_normal_mot_HHH_b1_02781_000000044_0001_39_52_H_._HHH_b2_02059_0001_0000100002_0000001_0_af2pred_0001_af2pred (protein)
chain: SSSSSSEEEEERVRELLERARKIEDWREAEELFEEALKIAARLKDPELLRLVLEFAREYSSSSSS
B7: il2ra_site1_3nfp_sap_12_mot_HHH_b1_07180_af2_000000260_0001_1_19_H_._HHH_b2_08228_0001_0000700033_0000001_0_0001 (protein)
chain: DAVERFIKKAEELDPRFKELLEELLELAHEHPQDDELAHALLHVVALIDNGNPEEAEKAAEEILK
B8: il2ra_site1_3nfp_normal_mot_0eddeacbb14b769e73e254714f31e2f9_0001_af2_000000052_0001_37_51_H_._HHH_b2_00297_af2_0001_0000100007_0000001_0 (protein)
chain: SSSSNEEADRLYELMKELIELAKEGNEEEAKEVAEELLKLAEERNDPNVEKAARLLLELLSSSSS
B9: il2ra_site2_2erj_normal_mot_HHH_b1_03990_af2_000000075_0001_19_35_H_._ems_p1-16H-GBL-16H-GABBL-16H_0048_0001_0001_0001_0001_0000100002_0000001_0_af2pred_0001_1_ … (protein)
chain: SSSSDEVVRLAARVSLIAREKGDEEAFLKASEILARFLKGILSEEEASKLLEELLKEAESSSSSS
B10: il2ra_site1_3nfp_sap_17_mot_86920ccf215a9397388743310839e631_0001_1_000000296_0001_18_34_H_._HHH_b1_08366_0001_0000400016_0000001_0_0001 (protein)
chain: SSSSDELERVVEELVKELGLTRVAKRALEEAVEMLKKMGISEEEAERALEDAARMFARIQSSSSS
B11: il2ra_site2_2erj_sap_21_mot_2e60acbd11533cd3bad2fa8ba2aa37e0_0001_af2_000000288_0001_35_49_H_._HHH_b1_03230_0001_0000300009_0000001_0_0001 (protein)
chain: SSSSSEEVEELIEQVEELLKKGDVEEAERVLRRAAHIAFEDGDEELFSKLAELTRAVAHAESSSS
B12: il2ra_site2_3nfp_sap_14_mot_HHH_b1_00660_af2_000000090_0001_40_57_H_._HHH_b2_00227_0001_0000400023_0000001_0_0001 (protein)
chain: SSSSDDAEEYIRAALALVELALEEGDPEIARKILEMARMAAEDNNNEELEEEVERLEELLSSSSS
B13: il2ra_site2_3nfp_normal_mot_HHH_b2_06150_000000217_0001_39_53_H_._HHH_b2_03460_af2_0001_0001000032_0000001_0 (protein)
chain: SSSSDVEERVRELLEEAEELFKEGDEEEAREILAEATRLAYEARDSELFFEVAEVLYRLASSSSS
B14: il2ra_site1_1z92_normal_mot_73a3237f21306322153cb43486d2ff88_0001_1_af2_000000006_0001_34_49_H_._66959ead3e6c57cb3ef8243f3eb758e0_0001_1_0001_0000300041_0000001 … (protein)
chain: NEAEEDLREAVEKNDEEELRKFIELLLRDAGDPKLVKQLLKILVKRLGLPPEVLERLEELLEELT
B15: il2ra_site1_1z92_normal_mot_HHH_b1_00893_000000159_0001_19_35_H_._3c0bf5cfbbd8e8a5fc1cbabefe5f89f2_0001_0001_0000100017_0000001_0_af2pred_0001_af2pred_1_swapped (protein)
chain: DRAERFLREQLERKLRKDVEAAARLLLKMAKANRDPELEEEAEKALELVKRDPEEAERLIRELLK
B16: il2ra_site1_2b5i_normal_mot_HHH_b2_08121_af2_000000082_0001_40_52_H_._HHH_b2_06152_0001_0000300013_0000001_1_af2pred_dldesign_0_af2pred (protein)
chain: SSSSSDLRAFADRTVDELKERLGLSEGARRQLRRFADLAVEQGVDEETLRKEVEAFARRASSSSS
B17: il2ra_site2_3nfp_normal_mot_HHH_b2_03978_000000149_0001_1_20_H_._HHH_b2_02394_0001_0000100002_0000001_0 (protein)
chain: SSSSDTEEEAEELLREAKELLERGNPEEALEILSRAAALAYRSGDHELFAKISEVMHELNSSSSS
B18: il2ra_site1_1z92_normal_mot_b1fbee8209167eaadba3689d49187f1a_0001_1_af2_000000018_0001_16_31_H_._0e4f66a3c4b070984708d3e1d5382b02_0001_1_0001_0000100003_0000001 … (protein)
chain: TNAEETFELARELGIPPEKVVRAIVSAVRRHDPRLREEAEELLEQVERGELPPEEAVKLLLELAE
B19: il2ra_site2_2erj_sap_19_mot_c2dd1dc352432ff47dded349a4d391fc_0001_1_000000244_0001_1_14_H_._HHH_b2_02787_0001_0000600019_0000001_0_0001 (protein)
chain: SSSSSAREASERVSELLAEANEVDDPEEFEELLREAERLAEEANNPFLERYIEYSRRDFHSSSSS
B20: il2ra_site1_2b5i_normal_mot_f5ff40796168375b462bec8614a1db4a_0001_1_000000138_0001_53_65_H_._HHH_b1_01883_0001_0000600017_0000001_0_af2pred_dldesign_0_af2pred (protein)
chain: SSSSSIRELVEELIEEAKRLKKEGKEDLVKKLLLLARRLAERAKDPELVAKVEEVEKEVESSSSS
B21: il2ra_site1_2b5i_sap_8_mot_HHH_b1_06844_000000212_0001_1_18_H_._HHH_b2_04608_af2_0001_0000600036_0000001_0_0001_af2pred_dldesign_0_af2pred (protein)
chain: SSSSSSFKEALLEAERLYKEAEKVDKETQKEILARVKELYEKYKDPAIAAAVEEIEELLKSSSSS
B22: il2ra_site1_1z92_sap_24_mot_HHH_b1_07866_af2_000000238_0001_1_18_H_._HHH_b1_02195_af2_0001_0000700010_0000001_0_0001_af2pred_0001_af2pred_1 (protein)
chain: DLEELLEKVLELLEQGNVEEARKLLEEILKELEERGDPLAYAFEALLKLLKKDEESAEKFVRKLL
B23: il2ra_site2_2erj_normal_mot_HHH_b1_01341_af2_000000245_0001_42_57_H_._HEEHE_1349_0001_0000400011_0000001_0_af2pred_0001_af2pred (protein)
chain: SDDEFLERAVEELAKAAGVPSVEVTVENNRIEVTIEGDDELARYASEILENVARWLGVELEVRVE
B24: il2ra_site2_2erj_normal_mot_HHH_b2_07139_000000086_0001_40_57_H_._HHH_b1_03178_af2_0001_0000900021_0000001_0 (protein)
chain: SSSSDERLREIFELLSKVAQALYEGNPEEAERLIEEARKVIEELNSENARELLEWLERHAESSSS

Some of the results follow.

The experiment has as its target il2ra, P01589. Put plainly: yeast display titration.
On to B1, for which the apparent Kd – broadly, the concentration giving half-maximal binding under the conditions of the assay – is “inactive: no binding seen”.
As for B2, the entry is “inactive: no binding seen”.
As for B3, the entry is “inactive: no binding seen”; as for B4, “inactive: no binding seen”.
For B5 the value was “inactive: no binding seen”; for B6, “inactive: no binding seen”.
Turning to B7, the “apparent Kd” value was “inactive: no binding seen”.
B8: the “apparent Kd” value is “inactive: no binding seen”.
As for B9, the “apparent Kd” value is “inactive: no binding seen”.
For B10 the value was “inactive: no binding seen”; for B11, “inactive: no binding seen”; for B12, “inactive: no binding seen”.
For B13, the “apparent Kd” value is “inactive: no binding seen”.
As for B14, the entry is “inactive: no binding seen”; as for B15, “inactive: no binding seen”.
With B16, the “apparent Kd” value was “inactive: no binding seen”.
As for B17, the entry is “inactive: no binding seen”; as for B18, inactive: > 1240 nM.
For the molecule B19, the apparent Kd is inactive: > 1110 nM.
Turning to B20, the “apparent Kd” value was “inactive: no binding seen”.
With B21, the “apparent Kd” value is “inactive: no binding seen”.
As for B22, the entry is “inactive: no binding seen”.
B23: the “apparent Kd” value was “inactive: no binding seen”.
For B24 the value was “inactive: no binding seen”.
